Data source: PubChem BioAssay AID504744 (Drosophila RNAi Screening Center, 2011)
The deposit covers about 23,000 reagents; this is a random part of those with a known target gene and a result. Over the whole deposit, 98 (0.43%) were called active. 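Only hit calls are given; the phospho-dAkt signals, z-scores and hit direction were not deposited.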 Names joined by + are all predicted targets of the reagent.

- Assay: 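Find genes whose loss alters insulin-driven dAkt phosphorylation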 (primary screen)
- Cell system: Drosophila Kc167 cells
- Reagents: long dsRNA against Drosophila genes, 250 ng dsRNA per well of a 384-well plate
- Timing: 3 days of knock-down, then overnight serum-free starvation before stimulation
- Challenge: bovine insulin at 387 nM for 10 minutes after 12 h without serum
- Read-out: 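Per-well phospho-dAkt level from an in-cell fluorescent antibody stain, divided by a DNA-dye signal; log2 residuals turned into z-scores that take cell number into account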
- Active means: 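Hit in the insulin screen when the two-replicate mean z-score is more extreme than plus or minus 2.5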

| predicted target | DRSC id | Outcome |
| --- | --- | --- |
| CG40498 | DRSC07786 | inactive |
| Hn | DRSC11184 | inactive |
| Smyd3 | DRSC17744 | inactive |
| Abca3 | DRSC20546 | inactive |
| CG15719 | DRSC19685 | inactive |
| TTLL3B | DRSC02133 | inactive |
| Ir7f | DRSC18012 | inactive |
| CG18568 | DRSC06768 | inactive |
| CG11262 | DRSC09831 | inactive |
| Ubc10 | DRSC07568 | inactive |
| Cog3 | DRSC00585 | inactive |
| CG9776 | DRSC12127 | inactive |
| CG14442 | DRSC17935 | inactive |
| Hira | DRSC18672 | inactive |
| Smu1 | DRSC15803 | inactive |
| Ntan1 | DRSC07546 | inactive |
| CG17325 + CG42305 | DRSC02602 | inactive |
| lgs | DRSC17152 | inactive |
| Adgf-C | DRSC16473 | inactive |
| CG9297 | DRSC16469 | inactive |
| Txl | DRSC11310 | inactive |
| CG17724 | DRSC06687 | inactive |
| CG7239 | DRSC03038 | inactive |
| Pdfr | DRSC18614 | inactive |
| Papst2 | DRSC10924 | inactive |
| CG3280 (retired record) | DRSC10356 | inactive |
| Hex-t2 | DRSC22517 | inactive |
| inv | DRSC07633 | inactive |
| Vps29 | DRSC00666 | inactive |
| Sfp93F | DRSC13505 | inactive |
| Pcd | DRSC16785 | inactive |
| Nepl21 | DRSC14133 | inactive |
| Smurf | DRSC07641 | inactive |
| Cyt-b5-r | DRSC03308 | inactive |
| Muc91C | DRSC16297 | inactive |
| Muc91C | DRSC21696 | inactive |
| CG12506 | DRSC00347 | inactive |
| CG31050 | DRSC13883 | inactive |
| CG14354 | DRSC14817 | inactive |
| CG6790 | DRSC16117 | inactive |
| CG9593 | DRSC16508 | inactive |
| lncRNA:CR32730 | DRSC22957 | inactive |
| CG10222 | DRSC09714 | inactive |
| Hsdl2 | DRSC15839 | inactive |
| Cyp4p3 | DRSC07374 | inactive |
| clu | DRSC07181 | inactive |
| CG1791 | DRSC18141 | inactive |
| wds | DRSC18852 | inactive |
| oys | DRSC05203 | inactive |
| oys | DRSC06751 | inactive |
| CG3339 | DRSC13821 | inactive |
| CG3339 | DRSC15479 | inactive |
| Ucp4A | DRSC19996 | inactive |
| r-l | DRSC17042 | inactive |
| r-l | DRSC22784 | inactive |
| Dso1 | DRSC21815 | inactive |
| Cyp6a13 | DRSC07375 | inactive |
| CG15743 | DRSC19709 | inactive |
| eIF1A | DRSC16937 | active |
| CG34260 + cmpy | DRSC11701 | inactive |
| cer | DRSC05992 | inactive |
| CG5327 | DRSC06930 | inactive |
| CG42264 | DRSC18074 | inactive |
| CG42264 | DRSC18075 | inactive |
| HDAC3 | DRSC12352 | inactive |
| Hecw | DRSC18261 | inactive |
| Hecw | DRSC18276 | inactive |
| CG3494 | DRSC04375 | inactive |
| X11L | DRSC19958 | inactive |
| X11L | DRSC19959 | inactive |
| Faa | DRSC08451 | inactive |
| Gal | DRSC03134 | inactive |
| CLIP-190 | DRSC03283 | inactive |
| upSET | DRSC11051 | inactive |
| Dip-C | DRSC15855 | inactive |
| SdhAL | DRSC10539 | inactive |
| CG14933 + CG42486 | DRSC02415 | inactive |
| CG12517 | DRSC02173 | inactive |
| Cpr73D | DRSC11084 | inactive |
| Eip63E | DRSC08658 | inactive |
| SMSr | DRSC10998 | inactive |
| SMSr | DRSC10999 | inactive |
| pippin | DRSC04489 | inactive |
| CG18662 | DRSC02691 | inactive |
| fest | DRSC07349 | inactive |
| CG32750 | DRSC18848 | inactive |
| Orai | DRSC05684 | inactive |
| Orai | DRSC22061 | inactive |
| maca | DRSC15738 | inactive |
| Nepl7 | DRSC02495 | inactive |
| CG6788 + CR32496 | DRSC22043 | inactive |
| MESR3 | DRSC02463 | inactive |
| dac | DRSC03518 | inactive |
| shg | DRSC04714 | inactive |
| CG11122 | DRSC19382 | inactive |
| asRNA:CR42547 + CG15674 | DRSC04264 | inactive |
| CG32413 | DRSC21591 | inactive |
| CG13127 | DRSC02223 | inactive |
| Sox14 | DRSC04656 | inactive |
| CG31826 | DRSC03357 | inactive |
| CG6729 | DRSC02984 | inactive |
| CG6729 | DRSC22793 | inactive |
| CG34302 | DRSC12751 | inactive |
| mRpS2 | DRSC00550 | inactive |
| CG14856 | DRSC14980 | inactive |
| CG5107 | DRSC15716 | inactive |
| CG10462 | DRSC02058 | inactive |
| RhoGAP93B | DRSC15488 | inactive |
| CG15014 | DRSC08468 | inactive |
| RpL21 | DRSC03704 | inactive |
| Or71a | DRSC11244 | inactive |
| aurA | DRSC16905 | inactive |
| Sptz | DRSC15758 | inactive |
| l(1)10Bb | DRSC20346 | active |
| Rbf | DRSC18704 | inactive |
| CG34001 | DRSC09042 | inactive |
| Nak | DRSC03379 | inactive |
| CG1138 | DRSC12530 | inactive |
| Eig71Eh | DRSC11155 | inactive |
| Mst87F | DRSC16747 | inactive |
| Cyp6t3 | DRSC07388 | inactive |
| CG14689 | DRSC14912 | inactive |
| CG10019 | DRSC00279 | inactive |
| CG31612 | DRSC03697 | inactive |
| CG31612 | DRSC03698 | inactive |
| RPA1 | DRSC16830 | inactive |
| Grl58a | DRSC04145 | inactive |
| ova | DRSC02879 | inactive |
| eco | DRSC11006 | inactive |
| CG4553 | DRSC15595 | inactive |
| CG11601 | DRSC00318 | inactive |
| Naglu | DRSC02267 | inactive |
| Ostgamma | DRSC03074 | inactive |
| CG5280 | DRSC10498 | inactive |
| CG5280 | DRSC22835 | inactive |
| Tep3 | DRSC03452 | inactive |
| Tomosyn | DRSC19365 | inactive |
| Tomosyn | DRSC19692 | inactive |
| Tomosyn | DRSC19782 | inactive |
| Tomosyn | DRSC19842 | inactive |
| CG33218 (retired record) | DRSC22944 | inactive |
| CG1105 | DRSC12528 | inactive |
| CG6654 | DRSC16084 | inactive |
| CG4229 | DRSC10407 | inactive |
| gom | DRSC04690 | inactive |
| CG10081 | DRSC05962 | inactive |
| Rtf1 | DRSC04085 | inactive |
| Camp | DRSC07004 | inactive |
| stet | DRSC08246 | inactive |
| stet | DRSC08283 | inactive |
| Muc96D | DRSC13709 | inactive |
| Muc96D | DRSC21609 | inactive |
| CG12825 | DRSC06174 | inactive |
| phtm | DRSC20237 | inactive |
| tra | DRSC11405 | inactive |
| CG33777 | DRSC08107 | inactive |
| PH4alphaNE3 | DRSC16541 | inactive |
| l(3)L1231 | DRSC16323 | inactive |
| CG32485 | DRSC22666 | inactive |
| mdy | DRSC01559 | inactive |
| mdy | DRSC02250 | inactive |
| Nmt | DRSC11236 | inactive |
| GstE3 | DRSC06673 | inactive |
| CG31817 | DRSC01537 | inactive |
| CG31817 | DRSC01538 | inactive |
| CG31817 | DRSC22476 | inactive |
| Ir25a | DRSC00462 | inactive |
| SkpF + CG5357 (retired record) | DRSC04120 | inactive |
| CG1213 | DRSC12191 | inactive |
| Gpo2 | DRSC06822 | inactive |
| laf | DRSC12246 | inactive |
| RpS13 | DRSC03419 | inactive |
| FMRFaR | DRSC08555 | inactive |
| CG15124 | DRSC06546 | inactive |
| CG9899 | DRSC04597 | inactive |
| Naa15-16 | DRSC19440 | inactive |
| Naa15-16 | DRSC22846 | inactive |
| CG9213 | DRSC20170 | inactive |
| Tfb4 | DRSC00675 | inactive |
| Bet5 | DRSC14600 | inactive |
| BigH1 | DRSC15491 | inactive |
| CG7218 | DRSC16216 | inactive |
